Measured data: PubChem BioAssay AID1259405 (NCATS, 2018)
Shown is an unselected part of about 50,000 reagents tested. About 4,000 of them (8%) were called active. 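Mouse siRNA library applied to hamster cells; one well for each siRNA.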 The numbers tell different reagents against one gene apart.

- Assay: 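Mouse-designed siRNAs used to find CHO productivity engineering targets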 (primary screen)
- System: Chinese hamster CHO-K1 ovary cells with stable secreted eGFP expression
- Knock-down reagent: single siRNA against mouse genes, 0.8 pmol siRNA per well (2 µl of 400 nM stock)
- Duration: 3 days
- Read-out: 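Per-well intracellular GFP measured by laser scanning cytometry, plus viability from ATP luminescence, each relative to plate median of non-targeting control wells, in %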
- Reading the numbers: GFP, % of control: higher = more GFP per well, higher productivity; viability (ATP), % of control: higher = more viable cells (more ATP)
- Active means: 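Called active when intracellular GFP, relative to negative control, is at or above 120%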

| gene knocked down | siRNA no. | GFP, % of control | viability (ATP), % of control | activity call |
| --- | --- | --- | --- | --- |
| Zbtb32 (zinc finger and BTB domain containing 32) | 1 | 94.3 | 65.1 | inactive |
| Zbtb32 (zinc finger and BTB domain containing 32) | 2 | 81.7 | 96.4 | inactive |
| Polr1h (RNA polymerase I subunit H) | 1 | 112 | 149 | inactive |
| Polr1h (RNA polymerase I subunit H) | 2 | 62.4 | 78.5 | inactive |
| Uqcrfs1 | 1 | 50.2 | 55.4 | inactive |
| Uqcrfs1 | 2 | 83.7 | 65.4 | inactive |
| Uqcrfs1 | 3 | 23.1 | 18.8 | inactive |
| Sec16a (SEC16 homolog A, endoplasmic reticulum export factor) | 1 | 43.8 | 76.7 | inactive |
| Sec16a (SEC16 homolog A, endoplasmic reticulum export factor) | 2 | 69.3 | 79.9 | inactive |
| Sec16a (SEC16 homolog A, endoplasmic reticulum export factor) | 3 | 84.3 | 91.9 | inactive |
| Lce1m (late cornified envelope 1M) | 1 | 79.5 | 53.4 | inactive |
| Lce1m (late cornified envelope 1M) | 2 | 132 | 133 | active |
| Lce1m (late cornified envelope 1M) | 3 | 140 | 127 | active |
| Chst15 (carbohydrate sulfotransferase 15) | 1 | 96.2 | 41.6 | inactive |
| Chst15 (carbohydrate sulfotransferase 15) | 2 | 84.2 | 87.2 | inactive |
| Chst15 (carbohydrate sulfotransferase 15) | 3 | 61.1 | 53.2 | inactive |
| Ergic3 (ERGIC and golgi 3) | 1 | 49 | 53.5 | inactive |
| Ergic3 (ERGIC and golgi 3) | 2 | 79 | 64.6 | inactive |
| Ergic3 (ERGIC and golgi 3) | 3 | 61 | 97.8 | inactive |
| Nkiras1 (NFKB inhibitor interacting Ras-like protein 1) | 1 | 64.5 | 52.6 | inactive |
| Nkiras1 (NFKB inhibitor interacting Ras-like protein 1) | 2 | 59.7 | 66.2 | inactive |
| Nkiras1 (NFKB inhibitor interacting Ras-like protein 1) | 3 | 66.4 | 72 | inactive |
| Kifbp (kinesin family binding protein) | 1 | 53.3 | 77.3 | inactive |
| Kifbp (kinesin family binding protein) | 2 | 66.8 | 73.2 | inactive |
| Kifbp (kinesin family binding protein) | 3 | 73.9 | 63.7 | inactive |
| Hmbox1 (homeobox containing 1) | 1 | 83.7 | 74.4 | inactive |
| Hmbox1 (homeobox containing 1) | 2 | 109 | 54.8 | inactive |
| Hmbox1 (homeobox containing 1) | 3 | 97 | 62.5 | inactive |
| Or5a3 (olfactory receptor family 5 subfamily A member 3) | 1 | 83.5 | 45.4 | inactive |
| Or5a3 (olfactory receptor family 5 subfamily A member 3) | 2 | 75.3 | 72.1 | inactive |
| Or5a3 (olfactory receptor family 5 subfamily A member 3) | 3 | 83.1 | 47.2 | inactive |
| Nfkbib | 1 | 49.8 | 61.2 | inactive |
| Nfkbib | 2 | 165 | 100 | active |
| Nfkbib | 3 | 90.2 | 81.7 | inactive |
| Cd70 (CD70 antigen) | 1 | 64.3 | 64.8 | inactive |
| Cd70 (CD70 antigen) | 2 | 95.8 | 81.3 | inactive |
| Cd70 (CD70 antigen) | 3 | 120 | 125 | inactive |

Not a retest: an excerpt of the list.
| gene knocked down | siRNA no. | GFP, % of control | viability (ATP), % of control | activity call |
| --- | --- | --- | --- | --- |
| Uqcrfs1 | 1 | 50.2 | 55.4 | inactive |
| Uqcrfs1 | 2 | 83.7 | 65.4 | inactive |
| Uqcrfs1 | 3 | 23.1 | 18.8 | inactive |
| Sec16a (SEC16 homolog A, endoplasmic reticulum export factor) | 1 | 43.8 | 76.7 | inactive |
| Sec16a (SEC16 homolog A, endoplasmic reticulum export factor) | 2 | 69.3 | 79.9 | inactive |
| Sec16a (SEC16 homolog A, endoplasmic reticulum export factor) | 3 | 84.3 | 91.9 | inactive |
| Lce1m (late cornified envelope 1M) | 1 | 79.5 | 53.4 | inactive |
| Lce1m (late cornified envelope 1M) | 2 | 132 | 133 | active |

The listing continues.
| gene knocked down | siRNA no. | GFP, % of control | viability (ATP), % of control | activity call |
| --- | --- | --- | --- | --- |
| Natd1 (N-acetyltransferase domain containing 1) | 1 | 101 | 73.2 | inactive |
| Natd1 (N-acetyltransferase domain containing 1) | 2 | 98.9 | 85.6 | inactive |
| Natd1 (N-acetyltransferase domain containing 1) | 3 | 150 | 81.7 | active |
| Atp4b (ATPase, H+/K+ exchanging, beta polypeptide) | 1 | 91.3 | 89.2 | inactive |
| Atp4b (ATPase, H+/K+ exchanging, beta polypeptide) | 2 | 115 | 93.2 | inactive |
| Atp4b (ATPase, H+/K+ exchanging, beta polypeptide) | 3 | 76.7 | 56.3 | inactive |
| Or4g7 (olfactory receptor family 4 subfamily G member 7) | 1 | 84 | 72.6 | inactive |
| Or4g7 (olfactory receptor family 4 subfamily G member 7) | 2 | 63.5 | 81.9 | inactive |
| Or4g7 (olfactory receptor family 4 subfamily G member 7) | 3 | 62.7 | 104 | inactive |
| Rdh16f2 (RDH16 family member 2) | 1 | 137 | 132 | active |
| Rdh16f2 (RDH16 family member 2) | 2 | 73.5 | 76.4 | inactive |
| Rdh16f2 (RDH16 family member 2) | 3 | 58.2 | 30.8 | inactive |
| Peds1 (plasmanylethanolamine desaturase 1) | 1 | 124 | 71.5 | active |
| Peds1 (plasmanylethanolamine desaturase 1) | 2 | 4.22 | 9.67 | inactive |
| Peds1 (plasmanylethanolamine desaturase 1) | 3 | 108 | 96.7 | inactive |
| Cox6b2 (cytochrome c oxidase subunit 6B2) | 1 | 163 | 145 | active |
| Cox6b2 (cytochrome c oxidase subunit 6B2) | 2 | 160 | 89.1 | active |
| Cox6b2 (cytochrome c oxidase subunit 6B2) | 3 | 118 | 79.8 | inactive |
| Cox6b2 (cytochrome c oxidase subunit 6B2) | 4 | 82 | 83.3 | inactive |
| Cox6b2 (cytochrome c oxidase subunit 6B2) | 5 | 66.8 | 95.6 | inactive |
| Cox6b2 (cytochrome c oxidase subunit 6B2) | 6 | 125 | 77 | active |
